Some results were stated once for a whole list of compounds, not compound by compound.
Tested on: NCI-H716 cells
Experiment: Promotion of GLP-1 secretion in NCI-H716 cells
Format: cell-based, human
Conditions: result in words
Experimental: Human appendix-derived cell line NCI-H716 (ATCC No CCL-251) was cultured in a 10% FBS-containing DMEM/HamF-12 medium at 37° C. in the presence of 5% CO2. NCI-H716 cells were seeded in a poly-D-lysine-coated 96-well plate at 100,000 cells/well and cultured for two days. Prior to sample addition, wells were washed with Hepes buffer (20 mM Hepes, 146 mM NaCl, 5 mM KCl, 1.5 mM CaCl2, 1 mM MgSO4, 5.5 mM D-glucose, 0.2% BSA, pH 7.4). Fifty μl of a sample solution dissolved in the same buffer was added and incubated at 37° C. for 30 minutes. The above-described compounds in Example 6 (Compound 1) (10 mM), Example 48 (Compound 2) (5 mM) and Example 14 (Compound 3) (2 mM) were used as the samples. In addition, a Hepes buffer was used as a control. After collecting the supernatant, the cells were precipitated by centrifugation (5,000×g, 1 min.) to collect the supernatant thereof. GLP-1 level in the supernatant was determined as described below according to a quantitative method for GLP-1 that uses GLP-1 receptor gene expression cells.
According to a routine method (Lopez de Maturana R, Willshaw A, Kuntzsch A, Rudolph R, Donnelly D. J Biol Chem. 2003 Mar. 21; 278 (12):10195-200), human GLP-1 receptor gene (Nucleotide sequence 1) was integrated into pcDNA3.1 to prepare human GLP-1 receptor gene expression plasmid hGLP-1R/pcDNA3.1. Moreover, chimeric gene (Nucleotide sequence 2) of human Gα15 gene and human gustducin gene was integrated into pcDNA3.1 to prepare G protein expression plasmid Gα15-gust/pcDNA3.1. […] After 24 hours of cultivation in a CO2 incubator, changes in the fluorescence intensity were determined starting immediately after sample addition according to the Ca^2+ fluorescence indicator FLIPR Calcium 4 Assay Kit protocol (Molecular Devices) using FlexStation (Molecular Devices). Concentration dependency of human GLP-1 (7-36 Amide; Peptide Institute) with respect to the changes in the fluorescence intensity was determined and used as a standard curve for quantitating the sample. […]

SMILES	effect of promoting GLP-1 secretion
N[C@@H](CNC(=O)Nc1cc(Cl)cc(S(=O)(=O)O)c1O)C(=O)O [Example 6, (2S)-2-amino-3-{[(5-chloro-2-hydroxy-3-sulfophenyl)carbamoyl]amino}propanoic acid]	confirmed to have an effect of promoting GLP-1 secretion
Cc1c(Cl)cc(S(=O)(=O)O)cc1NC(=O)NC[C@H](N)C(=O)O [Example 14, (2S)-2-amino-3-{[(3-chloro-2-methyl-5-sulfophenyl)carbamoyl]amino}propanoic acid]	confirmed to have an effect of promoting GLP-1 secretion
Cc1c(Cl)cc(NC(=S)NC[C@H](N)C(=O)O)cc1S(=O)(=O)O [Example 48, (2S)-2-amino-3-{[(3-chloro-4-methyl-5-sulfophenyl)carbamothioyl]amino}propanoic acid]	confirmed to have an effect of promoting GLP-1 secretion

Source: patent publication US9150505B2, “Prophylactic or therapeutic agent for diabetes or obesity” (AJINOMOTO CO., INC., priority 2010, dated 2015)
